This is one part of the list. Small differences around the control level are noise.

Protein sequences, listed by entry. Tags and fused reporters are not part of them. Lines headed by an entry give the natural chain unless they say otherwise; changes in a name come on top.
UniProt Q8WTW3: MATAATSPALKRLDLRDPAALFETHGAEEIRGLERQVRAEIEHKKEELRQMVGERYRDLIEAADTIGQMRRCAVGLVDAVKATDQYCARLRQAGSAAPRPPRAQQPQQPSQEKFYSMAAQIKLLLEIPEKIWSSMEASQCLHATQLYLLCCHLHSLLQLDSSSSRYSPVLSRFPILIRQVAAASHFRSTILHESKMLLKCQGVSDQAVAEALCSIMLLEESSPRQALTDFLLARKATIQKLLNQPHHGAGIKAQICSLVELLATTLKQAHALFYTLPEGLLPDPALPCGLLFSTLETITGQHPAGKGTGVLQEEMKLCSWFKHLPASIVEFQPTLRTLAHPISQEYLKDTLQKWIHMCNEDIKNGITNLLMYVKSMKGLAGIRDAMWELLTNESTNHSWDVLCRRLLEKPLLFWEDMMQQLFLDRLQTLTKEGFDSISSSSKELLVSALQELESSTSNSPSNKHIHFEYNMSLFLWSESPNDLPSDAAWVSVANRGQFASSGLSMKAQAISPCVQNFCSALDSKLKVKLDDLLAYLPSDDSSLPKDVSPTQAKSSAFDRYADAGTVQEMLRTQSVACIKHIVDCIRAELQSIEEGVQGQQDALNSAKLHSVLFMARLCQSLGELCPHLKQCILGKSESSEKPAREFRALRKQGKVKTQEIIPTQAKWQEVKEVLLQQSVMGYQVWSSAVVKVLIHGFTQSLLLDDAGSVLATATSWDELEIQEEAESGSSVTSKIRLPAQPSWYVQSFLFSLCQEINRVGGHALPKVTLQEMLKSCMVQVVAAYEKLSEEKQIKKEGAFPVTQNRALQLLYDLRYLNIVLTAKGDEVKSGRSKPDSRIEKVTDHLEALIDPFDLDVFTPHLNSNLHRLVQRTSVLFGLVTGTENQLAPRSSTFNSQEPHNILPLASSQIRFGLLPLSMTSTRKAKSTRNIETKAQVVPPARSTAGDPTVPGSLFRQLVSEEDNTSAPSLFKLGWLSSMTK
UniProt Q8TCD1: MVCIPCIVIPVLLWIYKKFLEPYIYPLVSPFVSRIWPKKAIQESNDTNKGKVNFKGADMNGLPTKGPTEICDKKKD
UniProt Q8WWZ3: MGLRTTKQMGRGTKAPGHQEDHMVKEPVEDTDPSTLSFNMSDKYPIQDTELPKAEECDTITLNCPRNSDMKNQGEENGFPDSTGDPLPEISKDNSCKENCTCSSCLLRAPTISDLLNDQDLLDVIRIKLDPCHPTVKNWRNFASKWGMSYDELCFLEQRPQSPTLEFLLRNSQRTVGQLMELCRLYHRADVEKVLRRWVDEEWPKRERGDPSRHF
UniProt Q92618: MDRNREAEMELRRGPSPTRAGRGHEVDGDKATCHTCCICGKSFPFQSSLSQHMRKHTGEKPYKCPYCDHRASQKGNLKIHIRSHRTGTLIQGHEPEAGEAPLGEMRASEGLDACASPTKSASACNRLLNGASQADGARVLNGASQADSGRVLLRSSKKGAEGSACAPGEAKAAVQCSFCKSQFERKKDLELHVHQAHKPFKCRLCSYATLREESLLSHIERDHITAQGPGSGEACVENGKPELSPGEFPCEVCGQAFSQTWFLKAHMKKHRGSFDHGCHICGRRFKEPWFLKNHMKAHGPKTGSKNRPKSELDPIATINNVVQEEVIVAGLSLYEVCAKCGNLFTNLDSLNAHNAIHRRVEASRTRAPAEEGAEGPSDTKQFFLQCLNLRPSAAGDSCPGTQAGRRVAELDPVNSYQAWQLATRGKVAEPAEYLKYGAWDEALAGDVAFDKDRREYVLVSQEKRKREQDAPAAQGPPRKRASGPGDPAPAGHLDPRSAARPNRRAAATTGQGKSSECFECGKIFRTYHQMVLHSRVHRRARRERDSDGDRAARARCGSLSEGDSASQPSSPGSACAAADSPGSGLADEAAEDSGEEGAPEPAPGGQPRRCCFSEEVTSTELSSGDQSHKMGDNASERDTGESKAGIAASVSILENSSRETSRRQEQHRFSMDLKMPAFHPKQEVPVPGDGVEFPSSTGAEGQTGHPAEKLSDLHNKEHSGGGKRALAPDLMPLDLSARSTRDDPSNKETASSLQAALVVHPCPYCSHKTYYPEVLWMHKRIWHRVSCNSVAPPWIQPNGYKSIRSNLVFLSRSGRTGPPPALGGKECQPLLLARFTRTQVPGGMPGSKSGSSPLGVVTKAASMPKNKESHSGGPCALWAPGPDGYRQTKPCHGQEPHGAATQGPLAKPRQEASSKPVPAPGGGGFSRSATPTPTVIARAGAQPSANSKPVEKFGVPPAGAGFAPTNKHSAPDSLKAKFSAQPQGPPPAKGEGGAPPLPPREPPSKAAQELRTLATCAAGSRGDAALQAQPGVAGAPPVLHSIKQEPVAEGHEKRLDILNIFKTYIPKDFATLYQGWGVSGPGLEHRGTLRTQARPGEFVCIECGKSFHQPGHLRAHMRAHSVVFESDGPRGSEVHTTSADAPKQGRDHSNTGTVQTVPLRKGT
UniProt Q8TC92: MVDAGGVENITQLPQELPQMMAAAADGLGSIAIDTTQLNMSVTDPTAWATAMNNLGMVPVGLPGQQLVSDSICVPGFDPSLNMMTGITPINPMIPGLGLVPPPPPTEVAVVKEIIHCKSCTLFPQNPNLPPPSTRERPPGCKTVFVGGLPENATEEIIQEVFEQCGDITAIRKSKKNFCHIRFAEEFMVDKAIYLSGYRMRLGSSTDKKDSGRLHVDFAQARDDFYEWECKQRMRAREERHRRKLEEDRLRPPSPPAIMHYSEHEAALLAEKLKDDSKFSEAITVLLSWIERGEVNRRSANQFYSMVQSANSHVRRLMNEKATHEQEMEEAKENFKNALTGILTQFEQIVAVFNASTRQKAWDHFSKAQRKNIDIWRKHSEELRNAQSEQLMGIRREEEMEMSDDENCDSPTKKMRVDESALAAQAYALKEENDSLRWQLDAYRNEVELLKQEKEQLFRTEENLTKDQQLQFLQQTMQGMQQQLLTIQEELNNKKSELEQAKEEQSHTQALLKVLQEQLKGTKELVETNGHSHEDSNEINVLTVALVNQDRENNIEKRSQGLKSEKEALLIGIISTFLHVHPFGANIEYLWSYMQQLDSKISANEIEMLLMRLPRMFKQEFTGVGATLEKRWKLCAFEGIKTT
UniProt Q8TEP8: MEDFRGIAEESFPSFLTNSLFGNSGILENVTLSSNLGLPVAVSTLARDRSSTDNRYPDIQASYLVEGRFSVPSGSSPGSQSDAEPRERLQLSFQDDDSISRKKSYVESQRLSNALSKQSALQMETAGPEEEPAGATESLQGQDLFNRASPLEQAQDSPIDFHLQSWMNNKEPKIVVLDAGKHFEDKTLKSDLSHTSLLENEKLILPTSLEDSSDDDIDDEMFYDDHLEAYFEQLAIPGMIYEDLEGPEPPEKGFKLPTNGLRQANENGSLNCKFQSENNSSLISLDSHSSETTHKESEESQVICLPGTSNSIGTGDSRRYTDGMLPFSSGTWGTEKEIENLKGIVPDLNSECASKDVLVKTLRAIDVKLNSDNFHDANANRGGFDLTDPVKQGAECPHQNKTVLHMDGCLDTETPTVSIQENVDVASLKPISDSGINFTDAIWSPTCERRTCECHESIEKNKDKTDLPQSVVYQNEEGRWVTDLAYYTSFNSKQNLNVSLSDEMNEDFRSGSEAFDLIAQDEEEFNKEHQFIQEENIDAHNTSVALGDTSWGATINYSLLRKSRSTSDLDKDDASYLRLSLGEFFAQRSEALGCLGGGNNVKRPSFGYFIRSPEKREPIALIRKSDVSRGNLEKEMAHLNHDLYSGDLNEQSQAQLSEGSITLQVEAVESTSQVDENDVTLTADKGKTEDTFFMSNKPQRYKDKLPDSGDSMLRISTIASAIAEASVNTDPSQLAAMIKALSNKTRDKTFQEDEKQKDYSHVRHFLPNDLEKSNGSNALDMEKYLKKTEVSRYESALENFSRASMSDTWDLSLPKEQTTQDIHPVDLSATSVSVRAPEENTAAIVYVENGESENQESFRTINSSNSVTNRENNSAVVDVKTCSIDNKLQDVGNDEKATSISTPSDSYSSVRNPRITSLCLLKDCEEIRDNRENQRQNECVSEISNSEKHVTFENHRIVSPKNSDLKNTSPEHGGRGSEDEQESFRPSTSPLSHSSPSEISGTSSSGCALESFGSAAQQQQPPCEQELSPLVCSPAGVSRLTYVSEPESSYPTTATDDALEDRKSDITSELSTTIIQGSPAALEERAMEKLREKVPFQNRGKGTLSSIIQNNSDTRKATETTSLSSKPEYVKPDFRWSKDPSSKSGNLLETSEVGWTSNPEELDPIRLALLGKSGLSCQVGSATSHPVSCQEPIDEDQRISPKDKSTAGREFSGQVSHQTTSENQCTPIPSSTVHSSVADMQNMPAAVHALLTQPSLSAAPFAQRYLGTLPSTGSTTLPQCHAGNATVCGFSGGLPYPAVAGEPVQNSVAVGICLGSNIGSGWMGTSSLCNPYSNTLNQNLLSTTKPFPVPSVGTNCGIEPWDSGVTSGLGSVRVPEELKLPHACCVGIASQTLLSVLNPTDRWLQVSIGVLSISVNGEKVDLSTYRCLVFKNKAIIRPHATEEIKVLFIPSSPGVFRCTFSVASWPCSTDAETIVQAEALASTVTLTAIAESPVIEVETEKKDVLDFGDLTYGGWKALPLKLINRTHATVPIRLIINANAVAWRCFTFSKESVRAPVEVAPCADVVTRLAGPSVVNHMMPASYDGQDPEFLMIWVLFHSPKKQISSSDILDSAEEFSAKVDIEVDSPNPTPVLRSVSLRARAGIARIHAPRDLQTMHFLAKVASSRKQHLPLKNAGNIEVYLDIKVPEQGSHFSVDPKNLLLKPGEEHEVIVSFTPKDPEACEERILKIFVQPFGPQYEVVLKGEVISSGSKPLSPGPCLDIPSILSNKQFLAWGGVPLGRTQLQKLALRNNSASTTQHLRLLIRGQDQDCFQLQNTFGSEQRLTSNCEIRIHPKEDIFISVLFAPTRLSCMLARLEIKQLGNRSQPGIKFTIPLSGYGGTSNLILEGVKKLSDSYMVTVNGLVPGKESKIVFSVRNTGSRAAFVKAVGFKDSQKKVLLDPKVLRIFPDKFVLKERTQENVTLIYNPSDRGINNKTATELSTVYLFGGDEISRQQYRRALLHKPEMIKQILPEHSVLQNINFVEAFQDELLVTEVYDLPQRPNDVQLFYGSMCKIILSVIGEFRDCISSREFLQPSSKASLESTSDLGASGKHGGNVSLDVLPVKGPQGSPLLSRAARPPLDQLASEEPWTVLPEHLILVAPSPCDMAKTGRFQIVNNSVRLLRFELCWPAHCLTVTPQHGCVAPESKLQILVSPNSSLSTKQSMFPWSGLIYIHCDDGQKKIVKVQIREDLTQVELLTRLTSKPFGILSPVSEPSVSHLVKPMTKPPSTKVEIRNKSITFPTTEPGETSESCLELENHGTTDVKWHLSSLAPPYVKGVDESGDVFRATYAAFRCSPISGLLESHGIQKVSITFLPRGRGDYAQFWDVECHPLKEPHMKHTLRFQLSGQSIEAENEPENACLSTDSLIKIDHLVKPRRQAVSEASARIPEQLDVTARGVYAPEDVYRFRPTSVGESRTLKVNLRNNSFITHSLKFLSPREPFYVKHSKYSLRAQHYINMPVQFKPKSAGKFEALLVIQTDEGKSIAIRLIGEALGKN
UniProt Q92750: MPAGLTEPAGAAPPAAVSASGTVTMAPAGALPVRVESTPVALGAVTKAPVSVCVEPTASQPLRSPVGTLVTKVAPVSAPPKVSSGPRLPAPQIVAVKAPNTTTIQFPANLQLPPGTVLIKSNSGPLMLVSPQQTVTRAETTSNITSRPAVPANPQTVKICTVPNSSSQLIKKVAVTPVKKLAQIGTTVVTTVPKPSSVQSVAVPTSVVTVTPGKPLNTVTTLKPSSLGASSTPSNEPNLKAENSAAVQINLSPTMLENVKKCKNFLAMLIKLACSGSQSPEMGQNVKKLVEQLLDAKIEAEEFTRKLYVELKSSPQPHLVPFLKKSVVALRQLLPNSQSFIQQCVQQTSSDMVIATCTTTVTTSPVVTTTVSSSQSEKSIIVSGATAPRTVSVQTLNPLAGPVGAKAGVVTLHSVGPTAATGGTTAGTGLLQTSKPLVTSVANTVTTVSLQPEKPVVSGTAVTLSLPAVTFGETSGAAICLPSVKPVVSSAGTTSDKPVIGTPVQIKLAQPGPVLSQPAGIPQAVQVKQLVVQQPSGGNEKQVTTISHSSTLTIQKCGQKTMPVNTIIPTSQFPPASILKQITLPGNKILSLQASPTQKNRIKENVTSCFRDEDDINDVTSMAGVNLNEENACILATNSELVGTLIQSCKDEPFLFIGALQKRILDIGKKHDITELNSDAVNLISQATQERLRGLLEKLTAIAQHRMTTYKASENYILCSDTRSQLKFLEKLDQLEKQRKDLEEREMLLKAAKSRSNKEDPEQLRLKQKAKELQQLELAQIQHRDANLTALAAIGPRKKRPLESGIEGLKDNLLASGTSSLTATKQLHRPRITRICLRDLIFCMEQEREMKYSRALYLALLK

Compound in the assay: CN[C@@H]1C[C@H]2O[C@@](C)([C@@H]1OC)n1c3ccccc3c3c4c(c5c6ccccc6n2c5c31)C(=O)NC4 [staurosporine]
Nature of the assay: log2 fold change of tryptic peptide abundance, ligand vs vehicle (limited proteolysis) (log2 ratio); higher = more trypsin-susceptible (destabilized). Particulars: ligand concentration: 20 uM; sample: K562 cleared lysate; digestion: 4 min, 22 C (HT-PELSA RT4min, Orbitrap Astral).
For “COG1 (peptide sequence: YRDLIEAADTIGQMR, peptide start residue: 56) (UniProt Q8WTW3)”, the log2 fold change was -0.222.

For “CKAP2 (peptide sequence: PASLSNDKLMEK, peptide start residue: 326) (UniProt Q8WWK9)”, the log2 fold change amounted to 0.643.

In the case of “DPF2 (peptide sequence: DKPYACDICGK, peptide start residue: 206) (UniProt Q92785)”, the log2 fold change is 0.414.

For the target “C18orf32 (peptide sequence: GADMNGLPTKGPTEICDK, peptide start residue: 56) (UniProt Q8TCD1)”, the log2 fold change is 0.24.

As to “SYNE2 (peptide sequence: VSRFHRR, peptide start residue: 6340) (UniProt Q8WXH0)”, the log2 fold change was 0.0458.

For the target “EDARADD (peptide sequence: TVGQLMELCR, peptide start residue: 175) (UniProt Q8WWZ3)”, the log2 fold change was found to be 0.185.

“HM13 (peptide sequence: EGTEASASK, peptide start residue: 362) (UniProt Q8TCT9)”: the log2 fold change came out at 0.396.

Consider “RAB2B (peptide sequence: IGPQQSISTSVGPSASQR, peptide start residue: 187) (UniProt Q8WUD1)”, for which the log2 fold change is -0.196.

As for “ZNF516 (peptide sequence: KKDLELHVHQAHK, peptide start residue: 186) (UniProt Q92618)”, the log2 fold change was -0.219.

Take “UniProt Q8TC92 (peptide sequence: AIYLSGYR, peptide start residue: 192)”: the log2 fold change was -0.0214.

Regarding “MYST3 (peptide sequence: LANPLYTEWILEAIKK, peptide start residue: 4) (UniProt Q92794)”, the log2 fold change came to 0.469.

Consider “CEP192 (peptide sequence: IVVLDAGKHFEDK, peptide start residue: 174) (UniProt Q8TEP8)”, for which the log2 fold change was -0.285.

“TAF4B (peptide sequence: LPAPQIVAVK, peptide start residue: 88) (UniProt Q92750)”: the log2 fold change was determined as 0.378.

In the case of “DUSP19 (peptide sequence: KIIETWKDAR, peptide start residue: 30) (UniProt Q8WTR2)”, the log2 fold change turned out to be 0.954.

Source of the values: the supplement of paper PMC12819154, “High-throughput peptide-centric local stability assay extends protein–ligand identification to membrane proteins, tissues and bacteria” (Nature Structural & Molecular Biology, 2025).
